For 1 molecule, binding results are on record in article PMC4447969.

Results are given in words; binding and its absence hold for the method and conditions named. Binding seen in cells or lysates may run through a third protein. Some results given as binding are weak or reduced against the parent protein; the word gives no strength. For some assays here: Where a sequence is shown, tags or fusion partners need not be part of it.

Experiment [1] addresses T1, endogenous IBtkα (human (endogenous in HeLa and HEK293T)) (UniProt Q9P2D0).
T1 sequence: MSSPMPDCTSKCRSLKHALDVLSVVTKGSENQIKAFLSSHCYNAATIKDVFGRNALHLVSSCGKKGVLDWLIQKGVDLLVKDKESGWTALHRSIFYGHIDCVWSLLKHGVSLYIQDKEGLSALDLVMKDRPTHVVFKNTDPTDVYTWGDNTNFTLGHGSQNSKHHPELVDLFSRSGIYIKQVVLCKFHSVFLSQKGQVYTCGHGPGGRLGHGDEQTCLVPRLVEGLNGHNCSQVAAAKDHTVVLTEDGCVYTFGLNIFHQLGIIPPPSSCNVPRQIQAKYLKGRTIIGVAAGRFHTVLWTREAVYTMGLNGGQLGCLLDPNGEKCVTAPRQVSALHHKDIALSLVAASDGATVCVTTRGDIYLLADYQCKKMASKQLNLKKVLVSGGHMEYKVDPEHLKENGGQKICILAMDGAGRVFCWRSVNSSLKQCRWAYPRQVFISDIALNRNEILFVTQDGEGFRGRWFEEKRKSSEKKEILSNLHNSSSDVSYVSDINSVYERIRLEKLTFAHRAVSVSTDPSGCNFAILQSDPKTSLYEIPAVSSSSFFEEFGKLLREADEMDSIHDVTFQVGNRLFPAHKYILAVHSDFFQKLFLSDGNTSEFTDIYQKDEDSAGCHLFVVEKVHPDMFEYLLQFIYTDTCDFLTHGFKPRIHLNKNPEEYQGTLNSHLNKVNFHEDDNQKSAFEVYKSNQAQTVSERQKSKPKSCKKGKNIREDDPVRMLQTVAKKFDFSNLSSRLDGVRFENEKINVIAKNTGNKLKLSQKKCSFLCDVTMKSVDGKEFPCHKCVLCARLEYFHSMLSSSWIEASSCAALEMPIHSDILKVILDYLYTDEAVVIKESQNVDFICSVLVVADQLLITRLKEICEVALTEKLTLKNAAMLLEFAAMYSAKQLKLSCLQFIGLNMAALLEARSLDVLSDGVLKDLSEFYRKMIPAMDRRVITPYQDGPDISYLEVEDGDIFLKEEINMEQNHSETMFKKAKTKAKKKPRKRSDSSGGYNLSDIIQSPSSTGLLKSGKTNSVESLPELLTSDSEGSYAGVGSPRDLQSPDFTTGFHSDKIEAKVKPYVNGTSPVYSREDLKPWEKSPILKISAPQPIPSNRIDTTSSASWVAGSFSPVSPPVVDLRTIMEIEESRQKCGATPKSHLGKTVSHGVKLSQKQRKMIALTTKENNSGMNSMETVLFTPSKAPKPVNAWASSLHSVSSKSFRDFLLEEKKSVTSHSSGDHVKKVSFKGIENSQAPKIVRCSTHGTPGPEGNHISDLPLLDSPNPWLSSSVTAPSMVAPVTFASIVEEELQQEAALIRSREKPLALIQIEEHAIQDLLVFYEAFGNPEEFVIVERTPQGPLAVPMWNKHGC
Description: co-IP; untransfected HEK293T cells treated for 4 h with MG132 (20 μM) or vehicle; lysates immunoprecipitated with anti-IBtk or IgG antibodies, Western blot. On the technique in general: In western blotting, separated proteins are transferred to a membrane and probed.

The target of experiment [2] is T2, IBtkα-FLAG (human inhibitor of Bruton's tyrosine kinase isoform α, aa 1–1352) (human) (UniProt Q9P2D0).
T2 sequence: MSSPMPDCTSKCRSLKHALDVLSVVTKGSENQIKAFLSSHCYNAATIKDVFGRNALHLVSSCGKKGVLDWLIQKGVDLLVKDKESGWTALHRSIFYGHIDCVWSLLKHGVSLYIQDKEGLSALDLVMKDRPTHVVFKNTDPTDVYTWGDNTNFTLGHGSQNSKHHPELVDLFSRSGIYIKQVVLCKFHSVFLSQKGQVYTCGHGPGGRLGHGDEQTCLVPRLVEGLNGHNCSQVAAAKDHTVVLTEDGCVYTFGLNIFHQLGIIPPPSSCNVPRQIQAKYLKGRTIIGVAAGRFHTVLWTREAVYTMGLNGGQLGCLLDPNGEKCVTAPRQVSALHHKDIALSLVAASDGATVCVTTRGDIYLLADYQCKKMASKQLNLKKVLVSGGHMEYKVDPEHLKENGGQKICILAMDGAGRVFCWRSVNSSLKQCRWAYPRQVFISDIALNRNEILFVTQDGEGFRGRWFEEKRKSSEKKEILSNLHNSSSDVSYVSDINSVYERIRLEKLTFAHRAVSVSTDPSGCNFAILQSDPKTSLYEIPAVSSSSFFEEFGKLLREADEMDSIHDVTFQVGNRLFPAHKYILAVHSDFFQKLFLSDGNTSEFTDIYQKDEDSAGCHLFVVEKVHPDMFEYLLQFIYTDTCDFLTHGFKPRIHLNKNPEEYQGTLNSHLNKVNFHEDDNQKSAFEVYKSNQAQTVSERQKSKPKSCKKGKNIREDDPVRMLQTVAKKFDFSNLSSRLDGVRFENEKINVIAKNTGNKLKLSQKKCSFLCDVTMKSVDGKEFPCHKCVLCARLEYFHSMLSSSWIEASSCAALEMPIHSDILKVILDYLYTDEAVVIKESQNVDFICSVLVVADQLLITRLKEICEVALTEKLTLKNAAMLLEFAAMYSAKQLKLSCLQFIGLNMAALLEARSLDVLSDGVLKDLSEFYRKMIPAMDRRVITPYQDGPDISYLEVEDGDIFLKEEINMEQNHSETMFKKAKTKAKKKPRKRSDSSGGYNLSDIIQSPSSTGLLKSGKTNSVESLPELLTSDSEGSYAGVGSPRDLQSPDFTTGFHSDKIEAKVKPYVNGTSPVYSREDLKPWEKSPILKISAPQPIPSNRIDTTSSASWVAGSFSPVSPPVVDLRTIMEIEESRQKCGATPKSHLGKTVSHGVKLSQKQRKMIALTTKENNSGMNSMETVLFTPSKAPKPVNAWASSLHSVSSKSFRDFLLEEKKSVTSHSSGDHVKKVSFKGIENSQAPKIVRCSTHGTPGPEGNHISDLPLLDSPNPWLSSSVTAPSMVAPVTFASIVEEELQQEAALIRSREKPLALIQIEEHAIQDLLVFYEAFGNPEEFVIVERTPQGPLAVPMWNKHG
In words: co-IP; HEK293T cells transfected with the tagged proteins, 48 h; extracts (1 mg) in RIPA buffer (50 mM Tris-HCl pH 8.0, 150 mM NaCl, 1 mM EDTA, 1% Igepal, 0.5% sodium deoxycholate) immunoprecipitated overnight with anti-FLAG or anti-Cul3 antibody, protein G beads, Western blot.

B1: endogenous Pdcd4 (programmed cell death 4) (protein, UniProt Q53EL6 1-469)
chain: MDVENEQILNVNPADPDNLSDSLFSGDEENAGTEEIKNEINGNWISASSINEARINAKAKRRLRKNSSRDSGRGDSVSDSGSDALRSGLTVPTSPKGRLLDRRSRSGKGRGLPKKGGAGGKGVWGTPGQVYDVEEVDVKDPNYDDDQENCVYETVVLPLDERAFEKTLTPIIQEYFEHGDTNEVAEMLRDLNLGEMKSGVPVLAVSLALEGKASHREMTSKLLSDLCGTVMSTTDVEKSFDKLLKDLPELALDTPRAPQLVGQFIARAVGDGILCNTYIDSYKGTVDCVQARAALDKATVLLSMSKGGKRKDSVWGSGGGQQSVNHLVKEIDMLLKEYLLSGDISEAEHCLKELEVPHFHHELVYEAIIMVLESTGESTFKMILDLLKSLWKSSTITVDQMKRGYERIYNEIPDINLDVPHSYSVLERFVEECFQAGIISKQLRDLCPSRGRKRFVSEGDGGRLKPESY
Take B1: the binding result in experiment [1] and in experiment [2] was “binds” in each case.
